Article PMC3960203
Results are given in words; binding and its absence hold for the method and conditions named. Binding seen in cells or lysates may run through a third protein. Some binding calls cover weakened binding; strength is not graded here.

Target: T1, chimeric receptor RANK-TNFR2 (UniProt Q9Y6Q6)
T1 sequence: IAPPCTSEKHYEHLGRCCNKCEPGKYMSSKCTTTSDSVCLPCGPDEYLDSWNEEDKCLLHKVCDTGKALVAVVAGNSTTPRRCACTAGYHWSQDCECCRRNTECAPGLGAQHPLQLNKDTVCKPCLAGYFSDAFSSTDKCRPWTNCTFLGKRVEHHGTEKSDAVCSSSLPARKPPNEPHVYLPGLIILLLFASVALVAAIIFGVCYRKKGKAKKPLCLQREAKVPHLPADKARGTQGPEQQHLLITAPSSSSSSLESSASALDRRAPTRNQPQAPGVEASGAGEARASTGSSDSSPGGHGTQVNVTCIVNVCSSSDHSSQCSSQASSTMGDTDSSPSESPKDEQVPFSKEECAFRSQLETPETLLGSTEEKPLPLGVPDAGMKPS
Test: co-IP; HEK293 cells cotransfected with receptor and TRAF plasmids, lysed after 24 h (20 mM Tris-HCl pH 8.0, 150 mM NaCl, 1 mM DTT, 2 mM EDTA, 1% Triton X-100); receptor precipitated with anti-FLAG and protein G-Sepharose at 4 °C; blots with anti-TRAF1, anti-TRAF2 or anti-TRAF3

- binding: binds
B1: TRAF1 (protein, UniProt Q13077 1-416)
chain: MASSSGSSPRPAPDENEFPFGCPPTVCQDPKEPRALCCAGCLSENPRNGEDQICPKCRGEDLQSISPGSRLRTQEKAHPEVAEAGIGCPFAGVGCSFKGSPQSVQEHEVTSQTSHLNLLLGFMKQWKARLGCGLESGPMALEQNLSDLQLQAAVEVAGDLEVDCYRAPCSESQEELALQHFMKEKLLAELEGKLRVFENIVAVLNKEVEASHLALATSIHQSQLDRERILSLEQRVVELQQTLAQKDQALGKLEQSLRLMEEASFDGTFLWKITNVTRRCHESACGRTVSLFSPAFYTAKYGYKLCLRLYLNGDGTGKRTHLSLFIVIMRGEYDALLPWPFRNKVTFMLLDQNNREHAIDAFRPDLSSASFQRPQSETNVASGCPLFFPLSKLQSPKHAYVKDDTMFLKCIVETST
